Results reported in article PMC3914973.
Results are given in words; binding and its absence hold for the method and conditions named. Binding seen in cells or lysates may run through a third protein. Some entries that bind do so weakly or less than the wild type. Blank lines part the entries; values can stand above or below the substance they belong to.

Chains of the proteins cited; added tags and fusions are not shown. Lines headed by an entry give the natural chain unless they say otherwise; changes in a name come on top.
UniProt Q16665: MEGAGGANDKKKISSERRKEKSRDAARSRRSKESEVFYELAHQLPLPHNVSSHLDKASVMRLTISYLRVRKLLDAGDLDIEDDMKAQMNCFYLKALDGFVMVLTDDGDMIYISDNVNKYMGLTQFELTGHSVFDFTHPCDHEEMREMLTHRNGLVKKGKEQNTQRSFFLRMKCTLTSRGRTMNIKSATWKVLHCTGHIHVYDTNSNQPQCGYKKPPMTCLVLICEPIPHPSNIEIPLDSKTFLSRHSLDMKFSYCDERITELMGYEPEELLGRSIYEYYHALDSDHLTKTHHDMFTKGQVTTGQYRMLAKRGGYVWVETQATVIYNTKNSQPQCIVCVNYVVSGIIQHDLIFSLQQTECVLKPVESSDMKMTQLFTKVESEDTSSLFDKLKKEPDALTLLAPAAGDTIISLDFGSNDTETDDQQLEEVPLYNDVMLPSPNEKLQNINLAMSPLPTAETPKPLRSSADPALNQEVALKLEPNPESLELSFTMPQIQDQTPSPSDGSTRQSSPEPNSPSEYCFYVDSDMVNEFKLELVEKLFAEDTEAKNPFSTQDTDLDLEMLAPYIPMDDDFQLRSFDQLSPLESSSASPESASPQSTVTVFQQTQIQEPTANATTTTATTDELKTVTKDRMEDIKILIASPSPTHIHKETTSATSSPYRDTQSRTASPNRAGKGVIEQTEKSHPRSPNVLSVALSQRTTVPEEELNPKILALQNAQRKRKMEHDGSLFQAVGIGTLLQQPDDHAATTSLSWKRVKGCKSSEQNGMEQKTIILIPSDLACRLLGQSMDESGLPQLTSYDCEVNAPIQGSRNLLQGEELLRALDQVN
UniProt Q99814: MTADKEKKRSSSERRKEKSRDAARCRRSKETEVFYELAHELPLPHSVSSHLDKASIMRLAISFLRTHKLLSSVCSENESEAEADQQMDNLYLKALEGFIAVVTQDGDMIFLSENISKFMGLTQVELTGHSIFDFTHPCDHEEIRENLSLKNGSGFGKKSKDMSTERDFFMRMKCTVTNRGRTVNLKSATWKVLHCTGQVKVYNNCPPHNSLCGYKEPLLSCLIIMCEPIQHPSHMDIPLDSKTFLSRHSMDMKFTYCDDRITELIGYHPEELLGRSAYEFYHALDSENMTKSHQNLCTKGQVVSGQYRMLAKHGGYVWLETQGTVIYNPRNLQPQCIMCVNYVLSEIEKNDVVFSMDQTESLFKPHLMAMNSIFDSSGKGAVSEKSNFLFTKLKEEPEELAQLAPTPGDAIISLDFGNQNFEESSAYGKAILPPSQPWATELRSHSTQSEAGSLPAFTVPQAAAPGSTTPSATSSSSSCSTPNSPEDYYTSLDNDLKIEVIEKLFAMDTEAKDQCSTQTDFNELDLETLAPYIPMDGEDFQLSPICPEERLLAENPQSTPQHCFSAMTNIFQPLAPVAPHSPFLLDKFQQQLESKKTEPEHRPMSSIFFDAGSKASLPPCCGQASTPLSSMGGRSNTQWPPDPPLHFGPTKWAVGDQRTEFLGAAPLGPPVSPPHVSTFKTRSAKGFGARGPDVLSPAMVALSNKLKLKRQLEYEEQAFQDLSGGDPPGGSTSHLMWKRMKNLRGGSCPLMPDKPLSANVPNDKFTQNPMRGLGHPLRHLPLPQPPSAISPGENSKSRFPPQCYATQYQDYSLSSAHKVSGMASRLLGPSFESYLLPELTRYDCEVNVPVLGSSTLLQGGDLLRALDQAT
UniProt Q9P1W9: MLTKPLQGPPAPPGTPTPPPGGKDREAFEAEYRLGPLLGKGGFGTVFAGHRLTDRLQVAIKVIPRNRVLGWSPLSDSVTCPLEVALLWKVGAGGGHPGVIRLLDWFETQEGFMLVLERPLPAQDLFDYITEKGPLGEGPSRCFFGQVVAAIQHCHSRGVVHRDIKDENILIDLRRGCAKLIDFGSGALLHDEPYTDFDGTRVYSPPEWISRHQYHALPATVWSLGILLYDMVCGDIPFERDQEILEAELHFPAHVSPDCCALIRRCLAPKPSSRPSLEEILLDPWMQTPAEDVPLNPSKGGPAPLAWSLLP

What was measured:
[1] = target: Endogenous HIF-1α (HepG2 cells) (human (endogenous in HepG2)) (UniProt Q16665); test: co-IP; endogenous proteins, HepG2 cells under hypoxia 24 h; IP with anti-HIF-1α or anti-HIF-2α antibody, immunoblot
[2] = target: Endogenous HIF-2α (HepG2 cells) (human (endogenous in HepG2)) (UniProt Q99814); test: as above
Flag-tagged PIM2 (human) [3] = target: Flag-tagged PIM2 (human) (UniProt Q9P1W9); test: co-IP; HEK293T cells transfected with Flag-tagged PIM2, 24 h, then hypoxia 24 h; IP with anti-Flag antibody, immunoblot for endogenous HIF-1α
Flag-tagged PIM2 (human) [4] = target: Flag-tagged PIM2 (human) (UniProt Q9P1W9); test: co-IP; HEK293T cells co-transfected with Flag-tagged PIM2 and HA-tagged HIF-1α (575-826aa), 24 h, then hypoxia 24 h; the legend says IP with anti-HA antibody, immunoblot
Flag-tagged PIM2 (human) [5] = target: Flag-tagged PIM2 (human) (UniProt Q9P1W9); test: co-IP; HEK293T cells co-transfected with Flag-tagged PIM2 and GFP-tagged HIF-1α, 24 h, then hypoxia (1% O2) 24 h; reciprocal: IP with anti-Flag or anti-GFP antibody and protein A agarose overnight at 4°C, washed five times with RIPA lysis buffer, immunoblot
GFP-tagged HIF-1α = GFP-tagged HIF-1α (UniProt Q16665); test: as above

Substance: Endogenous PIM2 (HepG2 cells) (from UniProt Q9P1W9 1-311) (enzyme)
binding [1]: binds
binding [2]: binds

Substance: Endogenous HIF-1α (HEK293T cells) (from UniProt Q16665 1-826)
binding (Flag-tagged PIM2 (human) [3]): binds

Substance: Flag-tagged PIM2 (from UniProt Q9P1W9 1-311) (enzyme)
binding (GFP-tagged HIF-1α): binds

More lines, now with the values ahead:

binding (Flag-tagged PIM2 (human) [4]): binds
Substance: HA-tagged HIF-1α transactivation domain (575–826aa) (from UniProt Q16665 575-826) (domain or fragment)

binding (Flag-tagged PIM2 (human) [5]): binds
Substance: GFP-tagged HIF-1α (from UniProt Q16665 1-826)
